# Laboratory results reported in the supplement of paper PMC7125110.
# ± gives the standard error. Many of these values have a large error.
# B1: glmS ribozyme (parent)
# chain: AUAAAAGCGCCAGAACUACAGAAAUGUAGUUGACGAGGAGGAGGUUUAUCGAAUUUUCGGCGGAUGCCUCCAAA
# Variants of: B1
# Assay: self-cleavage kobs at 10000 uM GlcN6P; higher = faster cleavage; RNA array
# Settings: with glucosamine-6-phosphate
# In short: (§1)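 Barcoded ribozyme variants on sequenced MiSeq chips were transcribed in situ by E. coli RNA polymerase and followed at 37 °C through a hybridised Cy3 probe. Glucosamine-6-phosphate at 40 μM to 10 mM in HEPES/KCl/Mg(OAc)2 buffer was flowed in, and tiles were imaged over ~14 h. Signals were normalised to baseline and to non-cleaving reference variants, and per-tile medians were fit to one- or two-exponential decays to give kobs. Weighted Michaelis–Menten fits across concentrations gave kcat and KM.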
row,Variant,self-cleavage kobs at 10000 uM GlcN6P [s⁻¹]
1,G37A G43U U55G,3.35e-05 ± 1.7e-05
2,C61U C71U,1.98e-05 ± 1.2e-05
3,G44U A53G C67G,0.149 ± 0.12
4,U45C A53C C70G,1.61e-05 ± 1.5e-05
5,G37A C50G C70G,2.06e-05 ± 1.9e-05
6,A36G U54A,2.03e-05 ± 2e-05
7,A12G U47G G66U C68G,2.18e-05 ± 1.9e-05
8,A36G C71U,1.53e-05 ± 1.1e-05
9,A12G G13C,2.18e-05 ± 1.1e-05
10,A6G C8A C68G,2.44e-05 ± 1.9e-05
11,G43A U65G,2.14e-05 ± 1.8e-05
12,A53G C70A,0.00336 ± 0.0018
13,U55C A64C,1.54e-05 ± 8.8e-06
14,A33U G66A C68U,2.49e-05 ± 1.5e-05
15,G37C G66A,2.61e-05 ± 2.1e-05
16,G40C U57A,2.58e-05 ± 1.4e-05
17,G44C U56C,1.87e-05 ± 1.2e-05
18,C16U A48U C67G,2.58e-05 ± 2.2e-05
19,A15C U69A,3.67e-05 ± 2.1e-05
20,G13U G29U U31C,1.6e-05 ± 1.4e-05
21,G13A C70G,1.17e-05 ± 1.1e-05

# Some of the entries above in a different format:
row | Variant | self-cleavage kobs at 10000 uM GlcN6P [s⁻¹]
3 | G44U A53G C67G | 0.149 ± 0.12
7 | A12G U47G G66U C68G | 2.18e-05 ± 1.9e-05
11 | G43A U65G | 2.14e-05 ± 1.8e-05
13 | U55C A64C | 1.54e-05 ± 8.8e-06
17 | G44C U56C | 1.87e-05 ± 1.2e-05
19 | A15C U69A | 3.67e-05 ± 2.1e-05

# More entries:

row,Variant,self-cleavage kobs at 10000 uM GlcN6P [s⁻¹]
1,U47C G66U,2.12e-05 ± 1.4e-05
2,C50G C71A,0.000603 ± 0.00033
3,G38U C67A,1.54e-05 ± 1.5e-05
4,C11U A52U U56A U57G U65G C67U U69G,2.78e-05 ± 1.8e-05
5,U45C C67U C68A,3.62e-05 ± 1.9e-05
6,C8A G37U A52G C70G,3.52e-05 ± 2.4e-05
7,C10A G59U C68A,3.5e-05 ± 1.8e-05
8,G7U C58A C67G C70U,2.84e-05 ± 2.4e-05
9,G43U C70U,1.87e-05 ± 9.7e-06
10,G7A C58A C67G,2.61e-05 ± 2.2e-05
11,U45G A48U G66U,3.48e-05 ± 2.1e-05
12,C10U U56A,2.21e-05 ± 1.2e-05
13,G7U A12G A33G U69A,3e-05 ± 2.2e-05
14,A39G C50G C58A,2.85e-05 ± 1.9e-05
15,A52G C67U C71G,2.7e-05 ± 1.7e-05
16,U49A A64G,1.69e-05 ± 1.3e-05
17,A48G U69A,1.91e-05 ± 1.7e-05
18,C10A A39G C70G,3.13e-05 ± 2.1e-05
19,U46A C68G,2.13e-05 ± 1.1e-05
20,U46G G59C U69A C70G,3.45e-05 ± 2e-05
21,C50A G60A C67A,1.72e-05 ± 1.7e-05

row,Variant,self-cleavage kobs at 10000 uM GlcN6P [s⁻¹]
1,A15G A36C C68G,3.23e-05 ± 2.4e-05
2,C11A G13C A53U C58G A64U U69A,4.36e-05 ± 2.4e-05
3,G32U U56A C61G C67A,2.56e-05 ± 1.7e-05
4,U56G U69G C71U,2.67e-05 ± 1.9e-05
5,A14C U65A C67G U69A,2.04e-05 ± 1.8e-05
6,G7A A15G,1.74e-05 ± 1e-05
7,C16G A42U,2.11e-05 ± 1.1e-05
8,U30C A53U C68G,2.36e-05 ± 1.5e-05
9,U45G A48G,2.39e-05 ± 1.5e-05
10,A15C A53U C70A,2.95e-05 ± 2.1e-05
11,A6C C50G C61U,4.16e-05 ± 2.4e-05
12,U45C U65A,3.14e-05 ± 1.6e-05
13,C11G U31G,1.48e-05 ± 1.5e-05
14,G26U U49A,2.46e-05 ± 1.7e-05
15,A6C U45G C70U,3.37e-05 ± 2e-05
16,A14G U47A C50A,2.16e-05 ± 1.2e-05
17,C58U U69G,1.43e-05 ± 1.3e-05
18,A52G U65G C70G,3.14e-05 ± 2e-05
19,U55A U57C C58U,1.78e-05 ± 1.6e-05
20,G29A A39U G43U,2.45e-05 ± 2.2e-05
21,G43U C71U,1.16e-05 ± 9.1e-06

# Variants of: B1
# Assay: self-cleavage kobs at 2500 uM GlcN6P; higher = faster cleavage; RNA array
# Settings: with glucosamine-6-phosphate
# In short: as §1
row,Variant,self-cleavage kobs at 2500 uM GlcN6P [s⁻¹]
1,A64U C68A C71G,3.3e-05 ± 3e-05
2,A33C U56G A64G G66A,3.21e-05 ± 2.3e-05
3,U57C C58G C70U,4.21e-05 ± 2.6e-05
4,U55G C68G U69C,4.39e-05 ± 2.5e-05
5,G59U C61A C67G,2.3e-05 ± 2.3e-05
6,A53G U57A C70A,3.49e-05 ± 2.2e-05
7,G40U A53C U65C G66A,2.77e-05 ± 2.5e-05
8,A36C U49G C61U,0.000179 ± 9.7e-05
9,C58A U69G,3.81e-05 ± 3e-05
10,U54G G60C C68G,4.5e-05 ± 2.4e-05
11,U57G C68A,2.27e-05 ± 2.1e-05
12,U45A A52U U65G,2.97e-05 ± 2.5e-05
13,G60A C70G,2.86e-05 ± 1.8e-05
14,U47G U49G,0.000114 ± 5.9e-05
15,G37C U54G U55G,3.17e-05 ± 3.1e-05
16,C58A C61G C68U,3.6e-05 ± 2.6e-05
17,A52U C68A,2.8e-05 ± 1.6e-05
18,U45C C67U C68A,3.85e-05 ± 2.5e-05
19,U46C U57A,2.74e-05 ± 1.5e-05

row,Variant,self-cleavage kobs at 2500 uM GlcN6P [s⁻¹]
1,A53C U54G A64C,2.46e-05 ± 2.1e-05
2,A53U U57C C68A,2.24e-05 ± 1.7e-05
3,C50U U56A C70U,4.19e-05 ± 2.6e-05
4,C50G G63A A64U,4.44e-05 ± 2.5e-05
5,A53C U56G U69A,5.02e-05 ± 2.6e-05
6,C50G A53U C68G,0.000261 ± 0.00013
7,G41A U46G C70U,0.00383 ± 0.0025
8,U46G C67A C70G,4.52e-05 ± 2.9e-05
9,C50A G60A C67A,2.77e-05 ± 2.2e-05
10,G43A U45G A48G G66A,4.66e-05 ± 3.2e-05
11,A39G U46G,0.00469 ± 0.0026
12,A39C C67A C70U,3.65e-05 ± 1.8e-05
13,U47A U57G C68U,2.47e-05 ± 2.4e-05
14,C61A C67G,2.04e-05 ± 1.5e-05
15,G35A C50G G59C U65G,0.00046 ± 0.00039
16,U47C G66U C67G,1.99e-05 ± 1.6e-05
17,A39C U55G,0.0038 ± 0.0021
18,G37C U47G C70G,3.19e-05 ± 1.9e-05
